From publication PMC7862700
This is one part of the list. Construct or isoform of the protein are uncertain.

Each sequence was assayed against T1, ETS1 (UniProt P14921) (assay: DAPPL (digital affinity profiling via proximity ligation, sequencing)). Details: 10 mM Tris-HCl pH 7.5, 50 mM NaCl, 1 mM DTT, 4% glycerol, room temperature, 30 min; GST-TFs on glutathione beads, 16-mer random dsDNA library, 0.1% …; high values mean tight binding; double strand, one strand shown; scale: fold enrichment (6-mer frequency, TF over GST control).
T1 sequence: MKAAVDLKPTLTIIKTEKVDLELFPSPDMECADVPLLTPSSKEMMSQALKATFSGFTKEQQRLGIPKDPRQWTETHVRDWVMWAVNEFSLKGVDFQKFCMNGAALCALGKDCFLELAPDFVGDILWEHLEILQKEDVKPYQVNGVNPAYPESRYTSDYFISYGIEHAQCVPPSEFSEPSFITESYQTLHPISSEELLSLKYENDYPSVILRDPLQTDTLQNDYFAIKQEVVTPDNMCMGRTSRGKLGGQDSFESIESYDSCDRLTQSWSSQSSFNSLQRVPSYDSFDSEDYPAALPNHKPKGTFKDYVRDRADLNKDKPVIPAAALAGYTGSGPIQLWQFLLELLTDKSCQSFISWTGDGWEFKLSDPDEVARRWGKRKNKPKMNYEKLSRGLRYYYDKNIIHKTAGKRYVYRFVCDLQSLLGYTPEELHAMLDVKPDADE

Sequence | binding signal
ACACTA | 1.14
TTTCTA | 1.34
AAAGTT | 1.08
GCTCAT | 1.15
ACTCGA | 1.31
CCCCCT | 1.13
ATATTG | 1.31
CGTCTG | 1.03
CGGTCT | 1.23
AAGCCT | 1.26
CCCTTA | 1.34
CTTCCG | 7.34
GGCACT | 1.2
ACCTCA | 1.15
GGATAT | 1.51
TTAAGG | 1.19
AGAATA | 1.02
TGGGGT | 1.11
ATTATA | 1.28
TTGTTC | 1.43

Taken from above.
For binding signal, TTGTTC is listed with 1.43
For binding signal, ACTCGA is listed with 1.31

Going on with the list.

Sequence | binding signal
CACTCA | 1.11
TCCATA | 1.38
TTCGTC | 1.27
TTATCT | 1.45
ACACTG | 1.12
TTTGTA | 1.61
ATCACA | 1.14
TCAACG | 1.08
ACGCTA | 1.08
GTTTTT | 1.35
GAATAT | 1.04
AATCCG | 1.5
CCTTAG | 1.24
CGTACG | 1
CCCCTC | 1.39
TAATTA | 1.29
CACTTT | 1.23
TTAGCT | 1.26
AACCGG | 1.41
GTATAA | 1.05
